Results deposited as PubChem BioAssay AID1259254 (NCATS, 2017)

Screen: 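Genome-wide screen for genes that prevent DNA re-replication in cancer cells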 (primary screen)
Cell system: human HCT116 colorectal cancer cells
Reagent: single siRNA against human genes
Timing: 3 days
Read-out: 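Nuclei stained with Hoechst and imaged; cell-cycle phase assigned by DNA content; G2 share scaled per plate, non-targeting siRNA 0%, GMNN siRNA 100%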
Scale: G2 robust z-score and G2 cells, % of GMNN control: higher = more G2 cells, more excess DNA replication
Active means: 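Active siRNAs have a G2 robust z of 5 or more median absolute deviations over the median, which in these data means about 38% or higher of GMNN control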
In all, the deposit lists about 59,000 reagents; shown is a part drawn at random. In the full data, about 1,550 (2.6%) are marked active. 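G2 share is only a proxy for re-replication; each gene was hit by three separate siRNAs, and active genes were retested.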 The numbers tell different reagents against one gene apart. Not all columns of the deposit are shown. No sequences are given here. Not stated in the record: the amount of reagent.

The first 7 entries as a preview:
gene	siRNA no.	G2 robust z-score	G2 cells, % of GMNN control	outcome
MYCN (MYCN proto-oncogene, bHLH transcription factor)	1	1.58	14.1	inactive
MYCN (MYCN proto-oncogene, bHLH transcription factor)	2	-0.24	1.28	inactive
MYCN (MYCN proto-oncogene, bHLH transcription factor)	3	-0.762	-2.39	inactive
SCN3A (sodium voltage-gated channel alpha subunit 3)	1	2.02	17.1	inactive
SCN3A (sodium voltage-gated channel alpha subunit 3)	2	0.165	4.13	inactive
SCN3A (sodium voltage-gated channel alpha subunit 3)	3	-1.33	-6.4	inactive
LOC652608 (60S ribosomal protein L6-like)	1	1.51	13.6	inactive

Main list, from the first entry:
gene	siRNA no.	G2 robust z-score	G2 cells, % of GMNN control	outcome
MYCN (MYCN proto-oncogene, bHLH transcription factor)	1	1.58	14.1	inactive
MYCN (MYCN proto-oncogene, bHLH transcription factor)	2	-0.24	1.28	inactive
MYCN (MYCN proto-oncogene, bHLH transcription factor)	3	-0.762	-2.39	inactive
SCN3A (sodium voltage-gated channel alpha subunit 3)	1	2.02	17.1	inactive
SCN3A (sodium voltage-gated channel alpha subunit 3)	2	0.165	4.13	inactive
SCN3A (sodium voltage-gated channel alpha subunit 3)	3	-1.33	-6.4	inactive
LOC652608 (60S ribosomal protein L6-like)	1	1.51	13.6	inactive
LOC652608 (60S ribosomal protein L6-like)	2	0.19	4.31	inactive
LOC652608 (60S ribosomal protein L6-like)	3	-0.732	-2.18	inactive
PKD2L2	1	-0.709	-2.02	inactive
PKD2L2	2	-0.0355	2.72	inactive
PKD2L2	3	-0.912	-3.45	inactive
LAP3 (leucine aminopeptidase 3)	1	0.377	5.62	inactive
LAP3 (leucine aminopeptidase 3)	2	0.82	8.74	inactive
LAP3 (leucine aminopeptidase 3)	3	-0.929	-3.57	inactive
TCF15 (transcription factor 15)	1	-0.361	0.428	inactive
TCF15 (transcription factor 15)	2	-0.496	-0.525	inactive
TCF15 (transcription factor 15)	3	-0.461	-0.279	inactive
PPIB (peptidylprolyl isomerase B)	1	0.708	7.95	inactive
PPIB (peptidylprolyl isomerase B)	2	0.807	8.65	inactive
PPIB (peptidylprolyl isomerase B)	3	0.41	5.85	inactive
NR2E1 (nuclear receptor subfamily 2 group E member 1)	1	0.245	4.69	inactive
NR2E1 (nuclear receptor subfamily 2 group E member 1)	2	-0.374	0.337	inactive
NR2E1 (nuclear receptor subfamily 2 group E member 1)	3	-0.568	-1.03	inactive
FKBP9 (FKBP prolyl isomerase 9)	1	1.75	15.3	inactive
FKBP9 (FKBP prolyl isomerase 9)	2	1.33	12.3	inactive
FKBP9 (FKBP prolyl isomerase 9)	3	5.4	41	active
CHRNA7 (cholinergic receptor nicotinic alpha 7 subunit)	1	5.42	41.1	active
CHRNA7 (cholinergic receptor nicotinic alpha 7 subunit)	2	2.07	17.6	inactive
CHRNA7 (cholinergic receptor nicotinic alpha 7 subunit)	3	-0.989	-3.99	inactive
SUGP2 (SURP and G-patch domain containing 2)	1	-1.46	-7.27	inactive
SUGP2 (SURP and G-patch domain containing 2)	2	-0.704	-1.99	inactive
SUGP2 (SURP and G-patch domain containing 2)	3	-0.264	1.11	inactive
LOC100288254	1	-0.574	-1.07	inactive
LOC100288254	2	0.153	4.04	inactive
LOC100288254	3	0.00978	3.04	inactive
KCNAB2	1	-0.472	-0.353	inactive
KCNAB2	2	0.758	8.3	inactive
KCNAB2	3	2.28	19	inactive
COPB1 (coat protein complex I subunit beta 1)	1	2.36	19.6	inactive
COPB1 (coat protein complex I subunit beta 1)	2	2.75	22.3	inactive
COPB1 (coat protein complex I subunit beta 1)	3	-0.104	2.24	inactive
MST1 (macrophage stimulating 1)	1	2.95	23.7	inactive
MST1 (macrophage stimulating 1)	2	-0.747	-2.29	inactive
MST1 (macrophage stimulating 1)	3	-0.727	-2.15	inactive
LIN28B (lin-28 RNA binding posttranscriptional regulator B)	1	8.43	62.3	active
LIN28B (lin-28 RNA binding posttranscriptional regulator B)	2	4.5	34.6	inactive
LIN28B (lin-28 RNA binding posttranscriptional regulator B)	3	-0.441	-0.134	inactive
OR2M4 (olfactory receptor family 2 subfamily M member 4)	1	1.54	13.8	inactive
OR2M4 (olfactory receptor family 2 subfamily M member 4)	2	1.37	12.6	inactive
OR2M4 (olfactory receptor family 2 subfamily M member 4)	3	-0.505	-0.583	inactive
SLAMF9 (SLAM family member 9)	1	1.77	15.4	inactive
SLAMF9 (SLAM family member 9)	2	-0.167	1.79	inactive
SLAMF9 (SLAM family member 9)	3	1.22	11.5	inactive
LOC645195 (retired record)	1	-0.206	1.52	inactive
LOC645195 (retired record)	2	1.34	12.4	inactive
LOC645195 (retired record)	3	0.988	9.92	inactive
EPB41L3 (erythrocyte membrane protein band 4.1 like 3)	1	-0.391	0.216	inactive
EPB41L3 (erythrocyte membrane protein band 4.1 like 3)	2	-0.351	0.496	inactive
EPB41L3 (erythrocyte membrane protein band 4.1 like 3)	3	0.177	4.22	inactive
CFHR5 (complement factor H related 5)	1	-0.607	-1.3	inactive
CFHR5 (complement factor H related 5)	2	-0.0499	2.62	inactive
CFHR5 (complement factor H related 5)	3	-0.65	-1.61	inactive
UQCRC1 (ubiquinol-cytochrome c reductase core protein 1)	1	0.869	9.08	inactive
UQCRC1 (ubiquinol-cytochrome c reductase core protein 1)	2	-1.21	-5.58	inactive
UQCRC1 (ubiquinol-cytochrome c reductase core protein 1)	3	0.384	5.67	inactive
NAMPT (nicotinamide phosphoribosyltransferase)	1	-0.547	-0.882	inactive
NAMPT (nicotinamide phosphoribosyltransferase)	2	-0.269	1.08	inactive
NAMPT (nicotinamide phosphoribosyltransferase)	3	0.783	8.48	inactive
